Measured values published in patent US5457051A, “Enantioselective hydrolysis of ketoprofen esters by beauveria bassiana and enzymes derived therefrom” (Sepracor, Inc., priority 1993, dated 1995).
At least one structure is not confirmed: it was looked up by name or label, or the drawing left a doubt.

Test system: Beauveria ester hydrolase
Assay: Substrate specificity of the enzyme preparation (Table 9; lipase and protease substrates)
Type: biochemical, Beauveria bassiana
Details: compound used as substrate
Description: A one-mL (final volume) reaction mixture contained ketoprofen choline ester (6 mg), NaPi buffer (200 mM, pH 6.5), and 150 mg of whole cells or pellet, or 300 μL cell crude extract. The reaction was carried out at 30° C. in a shaker with a reciprocal speed of 169 rpm. Routine assays of the enzyme were performed by using p-nitrophenyl ketoprofen as a substrate at 30° C.
Although the enzyme hydrolyzes the water-soluble choline ester, it appears that the enzyme might be a lipase.

Compound: CC(C(=O)Oc1ccc([N+](=O)[O-])cc1)c1cccc(C(=O)c2ccccc2)c1 (stereo not shown) [p-nitrophenyl Ketoprofen, p-nitrophenyl ketoprofen]
- Enzymic activity (n mole substrate hydrolyzed/min/mL enzyme): 11 n mole substrate hydrolyzed/mi
